The values that follow come from PubChem BioAssay AID248 (DTP/NCI, 2004).

The list shows only some results of the screen, not a fair sample: it is rich in T/C values a quarter to a half above the control, in often repeated tests (any T/C) and in doses without a T/C. Other doses and runs of a compound stand elsewhere. T/C: endpoint of the treated group in % of that of the vehicle group. Some doses have a count of surviving animals in place of a T/C: the source holds a T/C of zero for them, seemingly a mark for toxic or unscored doses. Some doses without a T/C left all or most animals alive at the check, yet need not have been tolerated: the source hardly ever lists a survival T/C far under the control, and the zero likely stands for such cases as well. Survivors were counted at the toxicity check, usually on the fifth day, unless a day is given; later deaths do not show. Schedules are NCI's codes, read here as Q, the interval in days (D) or hours (H), X, the number of doses. Some entries were tested several times; the values are given in rising order. Some schedules carry Z or #; the key to these is not given. Where survival is the endpoint, this PubChem deposit counts one and a half times the control or more as active, and values a quarter to a half above the control carry no call in these data; other NCI protocols may use other cut-offs. Some T/C values are followed by the survivors on the day toxicity was checked, most often the fifth; where none is given, no animal had died by that day.

For the test, the system named is L1210 leukemia ip in BDF1 mice, survival T/C. Nature of the test: NCI In Vivo Anticancer Drug Screen. Data for tumor model L1210 Leukemia (intraperitoneal) in B6D2F1 (BDF1) mice. Conditions: T/C endpoint: mean survival time, higher T/C = longer survival.
Setting [1] is: dose: 100.0 mg/kg/injection, schedule: Q01DX009 (ip), vehicle: saline with Tween-80.
Where [2] appears, read: dose: 200.0 mg/kg/injection, schedule: Q04DX003 (ip), vehicle: Klucel (hydroxypropylcellulose) (HPC).
Where [3] appears, read: dose: 400.0 mg/kg/injection, schedule: Q01DX009 (ip), vehicle: Klucel (hydroxypropylcellulose) (HPC).
The mark [4] stands for this setting: dose: 400.0 mg/kg/injection, schedule: Q01DX009 (ip), vehicle: saline with Tween-80.
Where [5] appears, read: dose: 400.0 mg/kg/injection, schedule: Q04DX003 (ip), vehicle: saline with Tween-80.
[6] abbreviates: dose: 200.0 mg/kg/injection, schedule: Q01DX009 (ip), vehicle: Klucel (hydroxypropylcellulose) (HPC).
Where [7] appears, read: dose: 400.0 mg/kg/injection, schedule: Q04DX003 (ip), vehicle: Klucel (hydroxypropylcellulose) (HPC).
[8] abbreviates: dose: 100.0 mg/kg/injection, schedule: Q04DX002 (ip), vehicle: saline with Tween-80.
Setting [9] is: dose: 200.0 mg/kg/injection, schedule: Q04DX002 (ip), vehicle: saline with Tween-80.
Where [10] appears, read: dose: 400.0 mg/kg/injection, schedule: Q04DX002 (ip), vehicle: saline with Tween-80.

On to `Cc1ccc(NC(=O)Nc2cccc(C(F)(F)F)c2)cc1NC(=O)Nc1cccc(C(F)(F)F)c1`, for which the survivor count runs as follows: under setting [1], 6 of 6; (dose: 200.0 mg/kg/injection, schedule: Q04DX003 (ip), vehicle: saline with Tween-80) 6 of 6.
As for `CCOP(=O)(OCC)/C(=C\c1ccccc1)C(=O)c1ccccc1`, the survivor count under setting [2] is on record as 3 of 6.
Take `COc1ccccc1NCc1cccc([N+](=O)[O-])c1`: under setting [3], the survivor count was 5 of 6.
Regarding `Cc1cccc(N2C(=O)CSC2=S)c1`, the survivor count is reported as 6 of 6 (dose: 50.0 mg/kg/injection, schedule: Q01DX009 (ip), vehicle: saline with Tween-80); 6 of 6 under setting [1]; 6 of 6 (dose: 200.0 mg/kg/injection, schedule: Q01DX009 (ip), vehicle: saline with Tween-80); 6 of 6 under setting [4].
As for `O=COC1CC2CC1C1CCCC21` (configuration not stated), the survivor count under setting [5] was 5 of 6.
Turning to `O=C1/C(=C/c2cccnc2)CCc2ccccc21`, the survivor count under setting [5] is given as 1 of 6.
Take `O=C(/C=C\c1ccc(/C=C/C(=O)Nc2cccc(C3=NCCCN3)c2)cc1)Nc1cccc(C2=NCCCN2)c1`: the T/C is, setting by setting: (dose: 1.25 mg/kg/injection, schedule: Q01DX Z (ip), vehicle: carboxymethylcellulose (CMC)) 129 % of control; (dose: 2.5 mg/kg/injection, schedule: Q01DX Z (ip), vehicle: carboxymethylcellulose (CMC)) 129 % of control. Besides, the survivor count is 0 of 6 (dose: 7.5 mg/kg/injection, schedule: Q01DX Z (ip), vehicle: water); 0 of 6 (dose: 10.0 mg/kg/injection, schedule: Q01DX Z (ip), vehicle: water); 0 of 6 (dose: 15.0 mg/kg/injection, schedule: Q01DX Z (ip), vehicle: water); 0 of 6 (dose: 25.0 mg/kg/injection, schedule: Q01DX Z (ip), vehicle: water).
Turning to `CC1(C)CCC2(C(=O)OC3OC(CO)C(O)C(O)C3O)CCC3(CO)C(=CCC4C5(C)CC(O)C(O)C(C)(C(=O)OC6OC(CO)C(O)C(O)C6O)C5CCC43C)C2C1` (configuration not stated), the survivor count (dose: 150.0 mg/kg/injection, schedule: Q01DX001 (sc), vehicle: steroid suspending solution) is on record as 3 of 6.
For `CCSC1=C(SCC)C(=O)C(SCC)=C(SCC)C1=O`, the survivor count under setting [1] was 6 of 6.
Consider `COc1cc(CC2c3ccccc3CC[N+]2(C)C)c(Oc2cc(CC3c4ccccc4CC[N+]3(C)C)ccc2OC)cc1OC` (configuration not stated), for which the survivor count (dose: 6.25 mg/kg/injection, schedule: Q01DX009 (ip), vehicle: Klucel (hydroxypropylcellulose) (HPC)) is 3 of 3; the survivor count (dose: 12.5 mg/kg/injection, schedule: Q01DX009 (ip), vehicle: Klucel (hydroxypropylcellulose) (HPC)) was 3 of 3; the survivor count (dose: 25.0 mg/kg/injection, schedule: Q01DX009 (ip), vehicle: Klucel (hydroxypropylcellulose) (HPC)) is recorded as 0 of 3; the survivor count (dose: 50.0 mg/kg/injection, schedule: Q01DX009 (ip), vehicle: Klucel (hydroxypropylcellulose) (HPC)) was 0 of 3; the survivor count (dose: 100.0 mg/kg/injection, schedule: Q01DX009 (ip), vehicle: Klucel (hydroxypropylcellulose) (HPC)) was 0 of 3; the survivor count under setting [6] is 0 of 3.
Regarding `[Co+2].[N-]=Cc1ccccc1O.[N-]=Cc1ccccc1O`, the survivor count was 0 of 6 under setting [2] and 0 of 6 under setting [7].
For `COC(=O)C1=C(C(=O)OC)C(C(=O)OC)N2C=CC=CC2=C1C(=O)OC` (configuration not stated), the survivor count (dose: 400.0 mg/kg/injection, schedule: Q01DX001 (ip), vehicle: carboxymethylcellulose (CMC)) is given as 2 of 4.
`COc1ccc2c(c1)CCCC2CC(=O)c1ccccc1` (configuration not stated): the survivor count (dose: 400.0 mg/kg/injection, schedule: Q04DX003 (ip), vehicle: acetone) is 6 of 6.
With `N#Cc1cn(C2OC(CO)C(O)C2O)c2nc(Cl)nc(N)c12` (configuration not stated), the T/C (dose: 12.5 mg/kg/injection, schedule: Q01DX005 (ip), vehicle: saline) was 128 % of control. Moreover, the survivor count by setting is: (dose: 50.0 mg/kg/injection, schedule: Q01DX005 (ip), vehicle: saline) 1 of 6; (dose: 50.0 mg/kg/injection, schedule: Q01DX009 (ip), vehicle: saline) 1 of 6; (dose: 100.0 mg/kg/injection, schedule: Q01DX005 (ip), vehicle: saline) 0 of 6; (dose: 200.0 mg/kg/injection, schedule: Q01DX005 (ip), vehicle: saline) 0 of 6.
`C=CS(=O)(=O)c1ccc([N+](=O)[O-])cc1`: the survivor count is 0 of 3 under setting [8], 0 of 3 under setting [9] and 0 of 3 under setting [10].
With `COc1ccc(C(c2ccc(OC)cc2)c2cccc([N+](=O)[O-])c2)cc1`, the survivor count under setting [5] is given as 5 of 6.
In the case of `c1cc[c]([Sn]([S]c2ccccn2)([c]2ccccc2)[c]2ccccc2)cc1`, the survivor count runs as follows: under setting [8], 1 of 3; under setting [9], 0 of 3; under setting [10], 0 of 3.
With `CCN(CC)CCN(Cc1ccccc1)C(=O)C(O)(c1ccccc1)c1ccccc1`, the survivor count (dose: 400.0 mg/kg/injection, schedule: Q01DX001 (ip), vehicle: saline with Tween-80) was 1 of 3.
With `Cc1c2c(nn1-c1ccccn1)C(=O)C=C(Nc1ccccc1)C2=O`, the survivor count is 3 of 3 (dose: 100.0 mg/kg/injection, schedule: Q04DX002 (ip), vehicle: Klucel (hydroxypropylcellulose) (HPC)) and 3 of 3 (dose: 200.0 mg/kg/injection, schedule: Q04DX002 (ip), vehicle: Klucel (hydroxypropylcellulose) (HPC)).
For `CC(=O)NN(c1ccc([N+](=O)[O-])cc1)c1ccc([N+](=O)[O-])cc1`, the survivor count under setting [6] is 6 of 6 and the survivor count under setting [7] is listed as 6 of 6.
Regarding `O=C1C(c2ccccc2)=S=C2Sc3ccccc3N12`, the survivor count under setting [6] is given as 6 of 6 and the survivor count under setting [3] is reported as 4 of 6.
As for `O=[N+]([O-])c1cccc(SN2CC2)c1`, the survivor count is recorded as 0 of 6 (dose: 100.0 mg/kg/injection, schedule: Q01DX001 (ip), vehicle: Klucel (hydroxypropylcellulose) (HPC)); 0 of 6 (dose: 200.0 mg/kg/injection, schedule: Q01DX001 (ip), vehicle: Klucel (hydroxypropylcellulose) (HPC)); 0 of 6 (dose: 400.0 mg/kg/injection, schedule: Q01DX001 (ip), vehicle: Klucel (hydroxypropylcellulose) (HPC)).
As to `CC(=O)c1cc2ccccc2o1`, under “dose: 25.0 mg/kg/injection, schedule: Q04DX003 (ip), vehicle: water”, the T/C was 126 % of control [9 of 10 alive].
Regarding `CN(C)CCOC(=O)N1c2ccccc2C(C)(C)c2ccccc21`, the survivor count is, setting by setting: (dose: 200.0 mg/kg/injection, schedule: Q01DX001 (ip), vehicle: water) 0 of 4; (dose: 400.0 mg/kg/injection, schedule: Q01DX001 (ip), vehicle: water) 0 of 4.
In the case of `CC(=Nc1cccnc1)c1ccccc1`, the survivor count is reported as 3 of 6 (dose: 60.0 mg/kg/injection, schedule: Q01DX001 (ip), vehicle: carboxymethylcellulose (CMC)); 1 of 6 (dose: 75.0 mg/kg/injection, schedule: Q01DX001 (ip), vehicle: carboxymethylcellulose (CMC)); 0 of 6 (dose: 150.0 mg/kg/injection, schedule: Q01DX001 (ip), vehicle: carboxymethylcellulose (CMC)); 0 of 6 (dose: 300.0 mg/kg/injection, schedule: Q01DX001 (ip), vehicle: carboxymethylcellulose (CMC)).
As to `O=[N+]([O-])c1ccc(/C(=C/c2ccccc2)[n+]2ccccc2)cc1`, the survivor count reads like this: (dose: 75.0 mg/kg/injection, schedule: Q01DX001 (ip), vehicle: acetone) 2 of 6; (dose: 150.0 mg/kg/injection, schedule: Q01DX001 (ip), vehicle: acetone) 0 of 6; (dose: 300.0 mg/kg/injection, schedule: Q01DX001 (ip), vehicle: acetone) 0 of 6.
`O=C(O)CC(NC(=O)OCc1ccccc1)c1ccccc1` (configuration not stated): the survivor count under setting [4] is 0 of 3 and 2 of 6.
Turning to `N#CC(/C=C/c1ccco1)Nc1ccccc1C(N)=O` (configuration not stated), the survivor count under setting [3] is reported as 0 of 6.
